The data set is described as follows: general procedure: solution-phase peptide synthesis. The following applies: coupling step, Tos-OH salt.

For the substance “Z-Trp-Ser-Tyr-D-Ser(Bu^t)-Leu-Arg-Pro-NHEt*Tos-OH”, the step yield is 85-90% (T2 r4), 70-80% (T2 r6) and 72% of theory (run 1).

These data come from patent US4691008 (dated 1987).
